Among the data in paper PMC8522838 are binding values, retold here.

The chains behind the UniProt entries cited, without tags or fusion partners. Where a name states a change or a piece, a line headed by the entry shows the natural chain unless it says otherwise. A line that says so, or that is headed by a name, gives the form on record, which may keep a tag or linker. Residues count along the entry.
UniProt P01106: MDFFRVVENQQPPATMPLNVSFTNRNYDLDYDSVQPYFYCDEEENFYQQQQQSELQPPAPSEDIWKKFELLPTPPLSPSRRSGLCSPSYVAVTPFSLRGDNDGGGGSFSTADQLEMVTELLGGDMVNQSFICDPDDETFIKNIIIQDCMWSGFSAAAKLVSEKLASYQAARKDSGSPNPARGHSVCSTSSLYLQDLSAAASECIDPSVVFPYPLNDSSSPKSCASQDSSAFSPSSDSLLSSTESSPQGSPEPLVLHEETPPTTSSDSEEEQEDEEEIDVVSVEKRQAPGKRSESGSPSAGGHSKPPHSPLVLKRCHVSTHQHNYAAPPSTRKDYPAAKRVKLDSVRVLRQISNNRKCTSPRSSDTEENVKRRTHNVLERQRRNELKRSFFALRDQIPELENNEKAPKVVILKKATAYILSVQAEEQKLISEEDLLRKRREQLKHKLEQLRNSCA
PYO-tagged full-length MYC: residues 16-454 of P01106
SmBiT-MYC 1-190: residues 16-205 of P01106
SmBiT-MYC 1-190 T58I (P01106-1, form named): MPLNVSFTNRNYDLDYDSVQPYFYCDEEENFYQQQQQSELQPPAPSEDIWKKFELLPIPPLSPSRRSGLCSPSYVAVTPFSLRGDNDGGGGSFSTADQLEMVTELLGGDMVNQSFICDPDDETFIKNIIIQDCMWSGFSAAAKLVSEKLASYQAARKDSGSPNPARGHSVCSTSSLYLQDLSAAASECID
SmBiT-MYC 1-190 W135A (P01106-1, form named): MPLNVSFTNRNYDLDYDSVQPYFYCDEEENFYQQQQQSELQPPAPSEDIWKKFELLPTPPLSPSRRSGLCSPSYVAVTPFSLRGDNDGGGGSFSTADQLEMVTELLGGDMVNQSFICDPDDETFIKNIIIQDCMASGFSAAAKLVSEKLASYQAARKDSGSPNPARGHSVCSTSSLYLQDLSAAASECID
SmBiT-MYC 1-190 S136A (P01106-1, form named): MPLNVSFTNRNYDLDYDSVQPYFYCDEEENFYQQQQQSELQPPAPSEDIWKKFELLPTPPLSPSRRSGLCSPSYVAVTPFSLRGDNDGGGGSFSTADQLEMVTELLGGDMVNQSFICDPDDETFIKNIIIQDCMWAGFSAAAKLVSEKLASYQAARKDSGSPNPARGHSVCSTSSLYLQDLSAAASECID
SmBiT-MYC 1-190 F138A (P01106-1, form named): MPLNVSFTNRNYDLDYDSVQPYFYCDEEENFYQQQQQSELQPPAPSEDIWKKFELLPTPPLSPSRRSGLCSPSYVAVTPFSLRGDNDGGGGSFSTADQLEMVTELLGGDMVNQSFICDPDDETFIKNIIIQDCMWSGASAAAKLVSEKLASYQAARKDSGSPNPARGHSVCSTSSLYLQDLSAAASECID
SmBiT-MYC 1-190 M134A (P01106-1, form named): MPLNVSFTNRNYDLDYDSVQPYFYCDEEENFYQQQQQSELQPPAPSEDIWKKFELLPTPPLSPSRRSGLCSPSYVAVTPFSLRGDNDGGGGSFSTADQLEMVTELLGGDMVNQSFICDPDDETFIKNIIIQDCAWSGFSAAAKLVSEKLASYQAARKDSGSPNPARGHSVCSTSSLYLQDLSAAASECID
UniProt Q9Y4A5: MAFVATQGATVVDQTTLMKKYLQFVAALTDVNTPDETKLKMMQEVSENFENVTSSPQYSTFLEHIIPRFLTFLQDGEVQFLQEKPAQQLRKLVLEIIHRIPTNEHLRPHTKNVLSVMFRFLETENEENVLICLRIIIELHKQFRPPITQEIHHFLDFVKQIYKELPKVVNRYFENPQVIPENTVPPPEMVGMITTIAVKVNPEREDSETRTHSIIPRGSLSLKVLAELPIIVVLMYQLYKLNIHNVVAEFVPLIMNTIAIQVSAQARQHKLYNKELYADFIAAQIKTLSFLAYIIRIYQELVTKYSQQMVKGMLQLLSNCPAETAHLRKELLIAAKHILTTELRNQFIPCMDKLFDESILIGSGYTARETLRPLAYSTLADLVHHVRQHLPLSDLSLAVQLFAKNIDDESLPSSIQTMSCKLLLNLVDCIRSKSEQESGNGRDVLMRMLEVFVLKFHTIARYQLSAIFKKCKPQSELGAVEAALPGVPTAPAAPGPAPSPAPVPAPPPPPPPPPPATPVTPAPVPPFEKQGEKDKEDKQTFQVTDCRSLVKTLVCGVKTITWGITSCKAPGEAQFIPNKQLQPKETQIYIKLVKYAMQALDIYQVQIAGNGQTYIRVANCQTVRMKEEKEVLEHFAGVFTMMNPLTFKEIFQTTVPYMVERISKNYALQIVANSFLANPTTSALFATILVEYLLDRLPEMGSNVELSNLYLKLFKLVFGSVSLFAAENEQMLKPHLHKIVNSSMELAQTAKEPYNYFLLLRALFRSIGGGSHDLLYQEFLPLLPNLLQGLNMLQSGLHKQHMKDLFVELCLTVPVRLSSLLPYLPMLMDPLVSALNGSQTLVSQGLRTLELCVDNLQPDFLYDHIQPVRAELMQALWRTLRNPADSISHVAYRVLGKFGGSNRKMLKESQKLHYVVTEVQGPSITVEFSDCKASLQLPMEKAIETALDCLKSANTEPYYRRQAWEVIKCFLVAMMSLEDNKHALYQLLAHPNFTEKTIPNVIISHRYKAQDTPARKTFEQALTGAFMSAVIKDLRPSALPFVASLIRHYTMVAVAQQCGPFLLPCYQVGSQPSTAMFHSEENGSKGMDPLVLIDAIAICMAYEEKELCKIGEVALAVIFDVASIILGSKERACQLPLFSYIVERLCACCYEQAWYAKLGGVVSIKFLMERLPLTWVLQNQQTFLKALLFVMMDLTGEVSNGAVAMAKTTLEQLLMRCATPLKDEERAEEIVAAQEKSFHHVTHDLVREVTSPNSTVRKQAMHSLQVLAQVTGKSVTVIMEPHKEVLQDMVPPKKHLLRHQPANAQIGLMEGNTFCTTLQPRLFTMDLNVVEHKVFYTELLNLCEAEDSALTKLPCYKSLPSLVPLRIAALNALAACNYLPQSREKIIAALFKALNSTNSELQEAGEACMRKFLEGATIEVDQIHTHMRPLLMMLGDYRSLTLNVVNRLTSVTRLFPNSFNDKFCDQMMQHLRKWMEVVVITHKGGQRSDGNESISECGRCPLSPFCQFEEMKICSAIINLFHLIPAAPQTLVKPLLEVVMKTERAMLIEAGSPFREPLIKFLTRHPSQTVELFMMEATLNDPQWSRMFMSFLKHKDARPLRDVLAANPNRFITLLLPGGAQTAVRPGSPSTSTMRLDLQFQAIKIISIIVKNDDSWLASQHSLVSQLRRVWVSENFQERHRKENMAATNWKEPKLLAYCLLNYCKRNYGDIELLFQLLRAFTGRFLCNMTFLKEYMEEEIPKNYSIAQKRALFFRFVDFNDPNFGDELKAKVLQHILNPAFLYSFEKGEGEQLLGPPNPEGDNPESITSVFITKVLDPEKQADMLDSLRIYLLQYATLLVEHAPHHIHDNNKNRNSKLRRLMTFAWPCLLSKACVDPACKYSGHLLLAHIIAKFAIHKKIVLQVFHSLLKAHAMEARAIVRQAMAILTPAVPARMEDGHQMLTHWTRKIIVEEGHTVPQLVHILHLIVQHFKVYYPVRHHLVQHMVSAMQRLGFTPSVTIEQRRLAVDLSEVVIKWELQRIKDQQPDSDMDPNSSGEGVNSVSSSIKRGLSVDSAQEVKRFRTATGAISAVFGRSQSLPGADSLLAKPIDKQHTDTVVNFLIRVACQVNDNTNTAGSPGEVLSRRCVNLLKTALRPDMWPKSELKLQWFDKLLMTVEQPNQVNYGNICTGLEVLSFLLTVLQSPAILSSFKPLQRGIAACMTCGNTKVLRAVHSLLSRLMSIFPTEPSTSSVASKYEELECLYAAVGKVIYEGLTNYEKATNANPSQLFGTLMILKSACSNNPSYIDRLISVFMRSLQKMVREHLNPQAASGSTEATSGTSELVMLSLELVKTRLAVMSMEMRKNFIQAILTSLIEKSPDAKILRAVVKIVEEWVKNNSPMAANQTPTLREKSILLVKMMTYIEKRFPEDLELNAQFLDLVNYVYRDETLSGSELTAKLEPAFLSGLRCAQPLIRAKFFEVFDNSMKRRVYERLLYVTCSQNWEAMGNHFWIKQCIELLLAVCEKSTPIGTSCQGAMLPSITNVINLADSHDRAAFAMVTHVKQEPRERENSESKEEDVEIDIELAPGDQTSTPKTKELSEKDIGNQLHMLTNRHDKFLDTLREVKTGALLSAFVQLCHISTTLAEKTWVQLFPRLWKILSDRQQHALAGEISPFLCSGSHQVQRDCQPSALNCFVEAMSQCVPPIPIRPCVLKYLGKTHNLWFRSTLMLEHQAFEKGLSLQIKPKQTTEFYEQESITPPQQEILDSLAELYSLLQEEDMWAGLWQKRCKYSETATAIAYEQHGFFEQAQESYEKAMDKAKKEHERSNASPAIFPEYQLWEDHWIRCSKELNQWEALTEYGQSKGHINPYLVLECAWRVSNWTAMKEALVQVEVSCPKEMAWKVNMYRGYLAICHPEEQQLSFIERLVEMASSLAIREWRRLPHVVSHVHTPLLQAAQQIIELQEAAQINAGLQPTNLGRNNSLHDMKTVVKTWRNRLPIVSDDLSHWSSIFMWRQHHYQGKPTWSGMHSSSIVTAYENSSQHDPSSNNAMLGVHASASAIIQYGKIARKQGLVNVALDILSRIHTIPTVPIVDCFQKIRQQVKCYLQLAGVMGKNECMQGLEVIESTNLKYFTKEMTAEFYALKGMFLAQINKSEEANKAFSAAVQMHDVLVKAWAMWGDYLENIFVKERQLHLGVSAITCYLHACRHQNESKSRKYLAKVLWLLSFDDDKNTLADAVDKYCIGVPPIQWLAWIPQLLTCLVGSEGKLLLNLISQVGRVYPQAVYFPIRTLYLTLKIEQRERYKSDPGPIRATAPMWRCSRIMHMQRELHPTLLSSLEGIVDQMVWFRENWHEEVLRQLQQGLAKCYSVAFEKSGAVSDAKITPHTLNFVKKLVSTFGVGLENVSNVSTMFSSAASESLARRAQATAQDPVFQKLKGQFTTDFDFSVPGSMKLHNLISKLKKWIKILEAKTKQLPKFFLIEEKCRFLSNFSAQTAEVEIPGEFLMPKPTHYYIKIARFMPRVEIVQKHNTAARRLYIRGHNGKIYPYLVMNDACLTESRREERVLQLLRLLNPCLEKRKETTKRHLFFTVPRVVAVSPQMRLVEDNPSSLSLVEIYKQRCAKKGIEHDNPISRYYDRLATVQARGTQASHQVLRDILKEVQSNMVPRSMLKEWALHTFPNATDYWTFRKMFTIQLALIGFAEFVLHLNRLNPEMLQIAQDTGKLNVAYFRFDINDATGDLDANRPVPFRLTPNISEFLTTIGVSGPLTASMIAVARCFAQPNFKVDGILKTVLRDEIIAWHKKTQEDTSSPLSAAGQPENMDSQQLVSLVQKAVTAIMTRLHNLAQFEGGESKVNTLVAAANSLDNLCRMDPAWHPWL
TRRAP 2033-2283-LgBiT: residues 2033-2283 of Q9Y4A5

The target of test [1] is endogenous MYC (human (endogenous in HEK293T)) (UniProt P01106). In words: co-IP; HEK293T cells transfected with FLAG-tagged TRRAP regions; endogenous MYC IP'd with C-33 beads; TRRAP and FLAG blots; competition with the native complex.
Test [2] concerns the target PYO-tagged full-length MYC (human) (UniProt P01106). In words: co-IP; HEK293T cells co-transfected with FLAG-tagged TRRAP regions and PYO-tagged full-length MYC; MYC IP'd with anti-PYO beads at 4°C for 16–20 h; western blot with anti-FLAG. In general terms: In western blotting, separated proteins are transferred to a membrane and probed.
The target of test [3] is TRRAP 2033-2283-LgBiT (UniProt Q9Y4A5). The experiment in a line: split reporter; NanoBiT luminescence complementation in live transfected Expi293F cells, 96-well plates, 48 hours after transfection; for the point mutants normalised to MYC expression.
For test [4] the target is unchanged. The experiment in a line: split reporter; NanoBiT luminescence complementation in cellular extracts of transfected Expi293F cells (F-buffer with 100 μg/mL Digitonin), protein concentration normalised.
For test [5], the target named is PYO-tagged full-length MYC (human) (UniProt P01106). In words: co-IP; Expi293F cells co-transfected with PYO-tagged full-length MYC (or mutants) and FLAG-tagged full-length TRRAP; MYC IP'd with anti-PYO beads.

No constants are given. Whether binding was seen depends on the method and setting. In cells and extracts the contact can be indirect. Some results given as binding are weak or reduced against the parent protein; the word gives no strength.

For the substance “FLAG-tagged TRRAP 2033-2283 (from UniProt Q9Y4A5 2033-2283) (domain or fragment)”, the binding result in test [1] and in test [2] was “binds” each time.

As to “SmBiT-MYC 1-190 T58I (from UniProt P01106-1 1-190) (domain or fragment)”, the binding entry in test [3] is “binds”.

Take “SmBiT-MYC 1-190 W135A (from UniProt P01106-1 1-190) (domain or fragment)”: in test [3], the binding result is listed as “binds”.

“SmBiT-MYC 1-190 S136A (from UniProt P01106-1 1-190) (domain or fragment)”: the binding entry in test [3] is reported as “binds”.

For “SmBiT-MYC 1-190 (from UniProt P01106-1 1-190) (domain or fragment)”, the binding entry in test [3] and in test [4] was “binds” throughout.

In the case of “SmBiT-MYC 1-190 F138A (from UniProt P01106-1 1-190) (domain or fragment)”, the binding entry in test [3] is on record as “binds”.

As for “endogenous TRRAP (from UniProt Q9Y4A5 1-3859)”, the binding entry in test [1] is on record as “binds”.

“SmBiT-MYC 1-190 M134A (from UniProt P01106-1 1-190) (domain or fragment)”: the binding result in test [3] is on record as “binds”.

In the case of “FLAG-tagged full-length TRRAP (from UniProt Q9Y4A5 1-3859)”, the binding result in test [5] is given as “binds”.
